Results are given in words; binding and its absence hold for the method and conditions named. Tags and fused reporters may be left off the sequences shown.

For this test, the target named is Cal_Ypd1, Ypd1 from Candida albicans (residues 12-184), Streptag removed (Candida albicans) (UniProt Q59WC6). The test can be described thus: SEC-MALS; 40 µg of protein injected on PROTEIN KW-803 (Shodex); 50 mM Hepes pH 7, 150 mM NaCl; 0.45 ml/min; both purified.

B1: Cal_Ypd1, Ypd1 from Candida albicans (residues 12-184), Streptag removed (protein, UniProt Q59WC6 12-184)
chain: SGLVDWAVFSEIVTMDEDEEGFSKSLVEVFVSQVEETFEEIDKYLKEKNLEKLSSSGHFLKGSAAALGLTKISNQCERIQNYGHKINFDNFQLEDIKTKGDSAVSAENVAVNDGETNPENGSNGNETSNNKTNTSNIPDESSDDFWIALIEDALAKARDGFDQSRRALDEYYE
Regarding B1, the binding entry is “no binding (tested: 40 µg of protein injected)”.

Source of the values: article PMC11224324.
